Results as given in patent US7893023B2, “Prodrugs activated by plasmin and their use in cancer chemotherapy” (priority 2000, dated 2011).
Not every detail of the peptide structures is certain; ends, links or a residue may be inferred. Square brackets hold non-standard residues; d marks the D form. Peptide text beside a SMILES is read from it. * marks the point of attachment. Doxorubicin(3'-N) = COc1cccc2c1C(=O)c1c(O)c3c(c(O)c1C2=O)C[C@@](O)(C(=O)CO)C[C@@H]3O[C@H]1C[C@H](N*)[C@H](O)[C@H](C)O1

Tested on: B16-B16 murine melanoma

For `COc1cccc2c1C(=O)c1c(O)c3c(c(O)c1C2=O)C[C@@](O)(C(=O)CO)C[C@@H]3O[C@H]1C[C@H](NC(=O)[C@H](CC(C)C)NC(=O)[C@H](CC(C)C)NC(=O)[C@H](CCCCN)NC(=O)[C@H](CC(C)C)NC(=O)[C@@H](C)N)[C@H](O)[C@H](C)O1` [Compound II, DOX, D-Ala-Leu-Lys-Leu-Leu-DOX] (H-[dA]LKLL-{Doxorubicin(3'-N)}), the “lung surface occupied by B16-B16 metastases” value (69.0 μmol/kg i.p. days 1 and 3, day 14, P<0.001) was 1.5%±0.6 and the “lung surface colonized, times lower than with the highest DOX dose” value (69.0 μmol/kg versus DOX 8.6 mmol/kg) was 15.6 times.
